Data set [1] addresses DNMT1 full-length (Homo sapiens) (UniProt P26358). Nature of the data set: SELEX. The conditions noted are these: purified recombinant protein, protein details: baculovirus Sf9, chitin bead-bound for selection.
Data set [2] has the same target. Nature of the data set: activity assay. The conditions noted are these: 5mC at C of each CGG on one strand; methylation substrate with [3H]AdoMet, 37 C; purified recombinant protein; protein details: baculovirus Sf9, chitin bead-bound for selection.
Another data set addresses M.SssI (UniProt P15840). As to the kind of experiment: inhibition of the protein. The conditions noted are these: little to no inhibition at 5 uM RNA, pUC19 substrate, purified recombinant protein.
Another data set relates to M.HpaII. Nature of the data set: inhibition of the protein. The conditions noted are these: little to no inhibition at 5 uM RNA, pUC19 substrate, purified recombinant protein.
Data set [3] concerns the target DNMT1 full-length (Homo sapiens) (UniProt P26358). As to the kind of experiment: inhibition of the protein. The conditions noted are these: some loss of inhibition, 5.28 uM RNA; purified recombinant protein; protein details: baculovirus Sf9, chitin bead-bound for selection; variant of miR-155-5p.
Data set [4] addresses DNMT1 endogenous (HCT-116) (Homo sapiens) (UniProt P26358). Nature of the data set: pull-down. The conditions noted are these: DNMT1 immunoprecipitation plus qPCR, HCT-116 overexpressing miR-155-5p, p<=0.001; protein in cells. Background: Quantitative PCR measures a nucleic acid by following its amplification.
Where [5] appears, read: label: 5'-33P in pull-down, variant of asCEBPα-2.

Amino acid sequences for entries named in this document (tags omitted). A change or cut given only in a name is not applied to a line headed by its entry.
UniProt P26358: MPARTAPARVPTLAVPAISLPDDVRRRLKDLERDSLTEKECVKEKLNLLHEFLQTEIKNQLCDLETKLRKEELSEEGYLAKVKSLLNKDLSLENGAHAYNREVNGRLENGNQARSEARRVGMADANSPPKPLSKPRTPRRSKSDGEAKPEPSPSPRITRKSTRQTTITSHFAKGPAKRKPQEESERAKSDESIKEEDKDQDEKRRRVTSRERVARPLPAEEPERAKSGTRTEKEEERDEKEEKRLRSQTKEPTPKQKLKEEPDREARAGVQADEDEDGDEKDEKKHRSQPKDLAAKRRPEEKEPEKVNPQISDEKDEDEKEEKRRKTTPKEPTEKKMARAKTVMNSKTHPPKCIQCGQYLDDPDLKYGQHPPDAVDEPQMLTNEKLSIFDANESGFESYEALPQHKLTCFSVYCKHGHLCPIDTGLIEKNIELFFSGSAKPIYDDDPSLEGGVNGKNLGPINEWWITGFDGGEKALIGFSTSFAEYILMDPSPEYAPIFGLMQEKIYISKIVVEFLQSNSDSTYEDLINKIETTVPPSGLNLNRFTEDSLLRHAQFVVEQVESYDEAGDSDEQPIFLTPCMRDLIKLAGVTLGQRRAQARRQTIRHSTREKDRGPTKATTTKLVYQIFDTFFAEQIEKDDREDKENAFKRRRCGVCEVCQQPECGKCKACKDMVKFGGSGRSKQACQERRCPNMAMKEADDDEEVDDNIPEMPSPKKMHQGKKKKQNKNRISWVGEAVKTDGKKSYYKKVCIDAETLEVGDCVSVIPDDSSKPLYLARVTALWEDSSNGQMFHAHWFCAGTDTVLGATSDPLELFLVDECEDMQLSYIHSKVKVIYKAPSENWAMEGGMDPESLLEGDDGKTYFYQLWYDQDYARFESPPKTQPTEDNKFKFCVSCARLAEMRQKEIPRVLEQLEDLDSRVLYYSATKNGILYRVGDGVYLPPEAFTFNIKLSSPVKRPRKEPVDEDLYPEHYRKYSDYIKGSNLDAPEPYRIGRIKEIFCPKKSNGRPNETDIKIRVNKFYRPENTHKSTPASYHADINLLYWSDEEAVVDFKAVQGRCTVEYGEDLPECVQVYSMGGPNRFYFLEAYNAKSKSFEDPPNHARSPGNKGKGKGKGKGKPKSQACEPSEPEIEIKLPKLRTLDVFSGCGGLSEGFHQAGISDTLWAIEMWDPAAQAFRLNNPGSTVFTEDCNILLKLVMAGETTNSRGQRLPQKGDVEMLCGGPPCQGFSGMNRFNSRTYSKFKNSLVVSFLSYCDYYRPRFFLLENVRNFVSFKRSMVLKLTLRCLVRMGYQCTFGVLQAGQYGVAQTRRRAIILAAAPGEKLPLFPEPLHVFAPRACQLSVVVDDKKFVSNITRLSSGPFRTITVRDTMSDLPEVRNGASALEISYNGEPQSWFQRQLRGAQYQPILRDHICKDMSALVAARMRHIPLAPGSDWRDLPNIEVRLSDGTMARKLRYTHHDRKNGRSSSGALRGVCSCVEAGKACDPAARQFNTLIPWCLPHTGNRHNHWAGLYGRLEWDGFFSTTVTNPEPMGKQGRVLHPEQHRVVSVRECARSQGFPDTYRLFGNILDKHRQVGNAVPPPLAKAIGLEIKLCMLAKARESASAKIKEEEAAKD
UniProt P15840: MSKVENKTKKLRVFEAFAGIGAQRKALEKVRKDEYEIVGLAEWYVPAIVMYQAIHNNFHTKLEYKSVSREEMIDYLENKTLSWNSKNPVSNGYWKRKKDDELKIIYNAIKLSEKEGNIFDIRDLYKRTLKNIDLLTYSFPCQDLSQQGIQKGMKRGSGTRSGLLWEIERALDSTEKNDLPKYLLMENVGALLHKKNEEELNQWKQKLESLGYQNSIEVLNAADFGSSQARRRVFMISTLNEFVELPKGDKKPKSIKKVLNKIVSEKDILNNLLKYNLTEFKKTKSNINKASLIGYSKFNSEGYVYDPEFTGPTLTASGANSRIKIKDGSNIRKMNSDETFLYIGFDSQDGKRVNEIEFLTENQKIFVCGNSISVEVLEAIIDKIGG

For part of these data: No signal at the amounts used counts as a negative. For part of these data: A weaker result is weaker than the reference pair of the same experiment. For part of these data: For at least one entry, the source does not settle the construct or the ends of the probe. For part of these data: Where cells or extracts were used, other partners may take part. For part of these data: Whether high values mean tight binding is not given here for every scale.

As to “AAAAGGGAACGUGAGCUGGGUUU [selected RNA 4]”, in data set [1] (among five most frequent RNAs), the selection result is on record as “selected”.
Still for that read-out and setting: under “AACGAGUAGGACGUGCGCGGCGG [selected RNA 3]” stands “selected”.
The same measure, in the same setting: under “AGCGAACAAGUACCGUGAGGGAA [selected RNA 5]” stands “selected”.
“AGGACGUGCGCGGCGGAGAGCGC [selected RNA 1]”: the selection result in data set [1] (among five most frequent RNAs in one-round selection, 37 C) was “selected”.
“AGUUCGAUGUCGGGGCUCGGAAU [selected RNA 2]”: the selection result in data set [1] (among five most frequent RNAs) is given as “selected”.
Consider “CGGCGGCGGCGGCGGCGGCGGCGGCGGCGGCGGCGG (double strand) [hemimethylated (CMeGG•CCG)12 36-bp DNA]”, for which the “activity on this sequence” value in data set [2] is listed as “active”.
As to GACAGUGGAGAGGGGCGGAGCGG [asCEBPα-2HPE], the “activity on this sequence” value in the data set with M.SssI (setting [5]) and with M.HpaII (setting [5]) was “not active” in each case.
In the case of UUAAUGCUAAUCGUGAUAGGG [3p-1], the “activity on this sequence” value in data set [3] is “less active”.
For the sequence UUAAUGCUAAUCGUGAUAGGGGU [miR-155-5p], the “activity on this sequence” value with M.SssI and in the data set on M.HpaII was “not active” in each case. Moreover, in data set [4], the binding signal (fold over IgG) amounted to 1.5.

The values above are taken from patent publication US20160272977.
